For 1 compound, inhibition results are on record in paper PMC7592376, “Design and synthesis of multi-target directed 1,2,3-triazole-dimethylaminoacryloyl-chromenone derivatives with potential use in Alzheimer's disease” (BMC Chemistry, 2020).

Protein sequences, listed by entry. Tags and fused reporters are not part of them. Residues count along the entry.
UniProt P05067, 672-713 limits assumed: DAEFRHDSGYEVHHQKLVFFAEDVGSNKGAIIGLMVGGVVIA

SMILES strings stand for the structures.

For the assay, the target named is Aβ1-42 (Homo sapiens, UniProt P05067). Nature of the assay: biochemical. The following applies: read-out: % Inhibition self-induced Aβ1–42 aggregation. The method, then:
Inhibition of Aβ1-42 self-aggregation was measured by ThT fluorescence assay. The details of the method were reported in our previous study. To study Aβ42 aggregation inhibition, a reported method, based on the fluorescence emission of ThT was followed. Briefly, the mixtures of Aβ1-40 peptide (Bachem company, Switzerland) and AChE (Sigma, Electrophorus electricus), in the presence or absence of the test inhibitor were incubated for 24 h at room temperature.

With `COc1cc2c(cc1OC)C(=O)C(CC1CCN(Cc3ccccc3)CC1)C2` (stereo not shown) [donepezil], the inhibition (in general, the relative decrease from the control value, in per cent) at 10 µM came out at 18.1 ± 1.4%.
